According to the supplement of paper PMC10735217:
Several values for one entry are separate records, joined by “and”; a condition that tells them apart may be missing. Equal values may be shown once. The list shows a part of the results. Single values are uncertain here, since repeats match poorly.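 In a drug-repurposing library screen, luminescence reads luciferase driven by eight TEAD-binding elements, stably integrated into human kidney-derived cells. Compounds scoring over five robust Z scores above the plate mean are called hits.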

Test system: HEK293A TEAD-LUC reporter
Experiment: TEAD-luciferase reporter activity (YAP activation), robust Z score vs plate; higher = stronger YAP/TEAD activation
Conditions: 24 h

SMILES	TEAD-luciferase reporter activity (compound concentration: 200 nM)	TEAD-luciferase reporter activity (compound concentration: 2 uM)	TEAD-luciferase reporter activity (compound concentration: 10 uM)
O=C(O)CC1CCc2c1[nH]c1ccc(OCc3ccc(C4CCCC4)c(C(F)(F)F)c3)cc21 (centres undefined)	inactive: -0.895	inactive: -0.396 and inactive: -0.528	inactive: 0.57
CCCCCCCCCCCC(=O)OCN1C(=O)CCc2ccc(OCCCCN3CCN(c4cccc(Cl)c4Cl)CC3)cc21 [Aripiprazole lauroxil]	inactive: -0.894	inactive: -1.17	inactive: -0.995
CC(C)(C)NCC(O)COc1cccc2c1C(=O)OC2 (racemic)	inactive: -1.38	inactive: 0.267	inactive: 4.9
Fc1ccc(Oc2cc(Sc3ccccn3)cnc2Nc2ccc(-c3nnn[nH]3)cn2)cc1	inactive: -0.228	–	inactive: 0.126
CC(C)c1onc(-c2c(Cl)cccc2Cl)c1COc1ccc(/C=C/c2cccc(C(=O)O)c2)c(Cl)c1	inactive: -0.962	inactive: 2.87	inactive: -1.16
[Cl][K] [Potassium chloride]	inactive: -1.21	inactive: 0.102	inactive: 0.913
c1ccc(-c2ccc(C(c3ccccc3)n3ccnc3)cc2)cc1 (centres undefined)	inactive: -0.268	inactive: -1.1	inactive: -0.907
C=Cc1cccc[n+]1[O-]	inactive: -0.639	inactive: -0.604	inactive: -0.942
CC(C)(C)C(=O)NCCCC(=O)O [pivagabine]	inactive: 3.17	inactive: 3.49	active: 5.87
CC[C@H](C)[C@@H]1C(=O)N[C@H](C2Cc3ccccc3C2)C(=O)N1[C@H](C(=O)N1CCOCC1)c1ccc(C)nc1C [epelsiban]	inactive: -1.1	inactive: 0.0385	inactive: -0.929
COCC(O)CN1CCN(C(C)c2ccc(Cl)cc2)CC1 (centres undefined)	inactive: -0.872	inactive: -1.19	inactive: 0.28
COCCOC(=O)N1CCN(S(=O)(=O)c2cc(F)c(Oc3ccc(Cl)cc3)c(F)c2)[C@@H](C(=O)NO)C1	inactive: 0.599	inactive: 2.3	inactive: 1.95
COc1ccc2c(c1)c(CC(=O)OC/C=C(\C)CC/C=C(\C)CCC=C(C)C)c(C)n2C(=O)c1ccc(Cl)cc1 [Indometacin farnesil]	inactive: -2.82	inactive: -1.16	inactive: -0.961
CCCCCS(=O)(=O)NC(=O)c1ccc2nc(C)n(Cc3ccc(Cl)cc3Cl)c2c1	inactive: -0.805	inactive: 1.53	inactive: 0.608
O=C(CS(=O)Cc1ccco1)NCCCOc1cccc(CN2CCCCC2)c1 (centres undefined)	inactive: -1.15	inactive: -0.444	inactive: 1.37
CC(C)(O)CC(=O)O [Calcium beta-hydroxy-beta-methylbutyrate]	inactive: -0.121	inactive: -0.84	inactive: -0.0337
OCC1OCC(O)C(O)[C@@H]1O (some centres undefined)	inactive: -1.15	inactive: -1.63	inactive: -0.0534
C[N+]1(c2cccc(C(F)(F)F)c2)CCC(N)=N1 (centres undefined)	inactive: -1.21	inactive: 4.23	inactive: 0.224
O=C(O)c1cn(C2CC2)c2cc(-n3cccc3)c(F)cc2c1=O	inactive: -0.844	inactive: -1.16	inactive: 0.993
CCN(CC)CCc1nc(-c2ccccc2)no1	inactive: 0.642	inactive: -0.698	inactive: -1.28
CO[C@@H]1[C@@H](O[C@@H]2O[C@H](C)[C@@H](O[C@H]3C[C@@](C)(O)[C@@H](OC(=O)CC(C)C)[C@H](C)O3)[C@H](N(C)C)[C@H]2O)[C@@H](CC=O)C[C@@H](C)[C@@H](O)/C=C/C=C/C[C@@H](C)OC(=O)C[C@H]1OC(C)=O [Josamycin]	inactive: 3.81	inactive: -0.675	inactive: 2.58
CC(C)C[C@H](N[C@@H](Cc1cncn1Cc1cc(Cl)cc(Cl)c1)C(=O)O)C(=O)O	inactive: -1.01	inactive: -1.1	inactive: 0.624
O=C(Nc1nc(-c2ccc(O)c(O)c2)c(-c2ccccc2)s1)c1ccc(O)c(O)c1	inactive: 1.71	inactive: 0.671	inactive: -0.532
CCCCc1nc(C)c(CC(=S)N(C)C)c(=O)n1Cc1ccc(-c2ccccc2-c2nnn[nH]2)cc1 [fimasartan]	inactive: -0.193	inactive: -1.27	inactive: 3.08
CC(C)N1CCN(c2ccc(OCC3COC(Cn4cncn4)(c4ccc(Cl)cc4Cl)O3)cc2)CC1 (centres undefined) [terconazole]	inactive: -0.779	inactive: -1.62	inactive: -0.724

Look-ups from the entries so far:
For TEAD-luciferase reporter activity (compound concentration: 10 uM), `c1ccc(-c2ccc(C(c3ccccc3)n3ccnc3)cc2)cc1` (centres undefined) is entered as inactive: -0.907
For TEAD-luciferase reporter activity (compound concentration: 200 nM), `O=C(O)c1cn(C2CC2)c2cc(-n3cccc3)c(F)cc2c1=O` is entered as inactive: -0.844
